PMC11967818
No constants are given. Whether binding was seen depends on the method and setting. Binding seen in cells or lysates may run through a third protein. Some results given as binding are weak or reduced against the parent protein; the word gives no strength.

Amino acid sequences for entries named in this document (tags omitted).
UniProt Q9Z204: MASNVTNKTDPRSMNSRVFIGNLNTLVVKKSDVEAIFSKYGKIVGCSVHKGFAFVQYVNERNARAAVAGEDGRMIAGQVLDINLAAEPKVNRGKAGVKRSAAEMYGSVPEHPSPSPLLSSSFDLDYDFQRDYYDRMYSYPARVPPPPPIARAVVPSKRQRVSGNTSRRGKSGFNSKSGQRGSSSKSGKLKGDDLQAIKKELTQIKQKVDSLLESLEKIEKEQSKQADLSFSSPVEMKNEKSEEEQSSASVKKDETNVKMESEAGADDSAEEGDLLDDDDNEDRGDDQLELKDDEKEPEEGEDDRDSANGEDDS

biological target: hnRNPC (mouse (endogenous in P8 testes)) (UniProt Q9Z204); assay: co-IP; P8 WT mouse testis lysate, treated with or without RNase A (1 ug/mL, 30 min); Protein G magnetic beads with anti-hnRNPC antibody or rabbit IgG, overnight at 4 °C; Western blot of the immunoprecipitates

Row | binding | Binder
1 | binds | BUD31 (protein, UniProt Q6PGH1 1-144) MPKVKRSRKAPPDGWELIEPTLDELDQKMREAETEPHEGKRKVESLWPIFRIHHQKTRYIFDLFYKRKAISRELYEYCIKEGYADKNLIAKWKKQGYENLCCLRCIQTRDTNFGTNCICRVPKSKLEVGRIIECTHCGCRGCSG
2 | binds | SF3A1 (protein, UniProt Q8K4Z5 1-791) MQAGPVQAVPPPPPVATESKQPIEEEASSKEDPTPSKPVVGIIYPPPEVRNIVDKTASFVARNGPEFEARIRQNEINNPKFNFLNPNDPYHAYYRHKVSEFKEGKAQEPSAAIPKVMQQQQQATQQQLPQKVQAQVIQETIVPKEPPPEFEFIADPPSISAFDLDVVKLTAQFVARNGRQFLTQLMQKEQRNYQFDFLRPQHSLFNYFTKLVEQYTKILIPPKGLFSKLKKEAENPREVLDQVCYRVEWAKFQERERKKEEEEKEKERVAYAQIDWHDFVVVETVDFQPNEQGNFPPPTTPEELGARILIQERYEKFGESEEVEMEVESDEEDQEKAEETPSQLDQDTQVQDMDEGSDDEEEGQKVPPPPETPMPPPLPPTPDQVIVRKDYDPKASKPLPPAPAPDEYLVSPITGEKIPASKMQEHMRIGLLDPRWLEQRDRSIREKQSDDEVYAPGLDIESSLKQLAERRTDIFGVEETAIGKKIGEEEIQKPEEKVTWDGHSGSMARTQQAAQANITLQEQIEAIHKAKGLVPEDDTKEKIGPSKPNEIPQQPPPPSSATNIPSSAPPITSVPRPPAMPPPVRTTVVSAVPVMPRPPMASVVRLPPGSVIAPMPPIIHAPRINVVPMPPAAPPIMAPRPPPMIVPTAFVPAPPVAPVPAPAPMPPVHPPPPMEDEPPSKKLKTEDSLMPEEEFLRRNKGPVSIKVQVPNMQDKTEWKLNGQGLVFTLPLTDQVSVIKVKIHEATGMPAGKQKLQYEGIFIKDSNSLAYYNMASGAVIHLALKERGGRKK
3 | binds | SF3B3 (protein, UniProt Q921M3 1-1217) MFLYNLTLQRATGISFAIHGNFSGTKQQEIVVSRGKILELLRPDPNTGKVHTLLTVEVFGVIRSLMAFRLTGGTKDYIVVGSDSGRIVILEYQPSKNMFEKIHQETFGKSGCRRIVPGQFLAVDPKGRAVMISAIEKQKLVYILNRDAAARLTISSPLEAHKANTLVYHVVGVDVGFENPMFACLEMDYEEADNDPTGEAAANTQQTLTFYELDLGLNHVVRKYSEPLEEHGNFLITVPGGSDGPSGVLICSENYITYKNFGDQPDIRCPIPRRRNDLDDPERGMIFVCSATHKTKSMFFFLAQTEQGDIFKITLETDEDMVTEIRLKYFDTVPVAAAMCVLKTGFLFVASEFGNHYLYQIAHLGDDDEEPEFSSAMPLEEGDTFFFQPRPLKNLVLVDELDSLSPILFCQIADLANEDTPQLYVACGRGPRSSLRVLRHGLEVSEMAVSELPGNPNAVWTVRRHIEDEFDAYIIVSFVNATLVLSIGETVEEVTDSGFLGTTPTLSCSLLGDDALVQVYPDGIRHIRADKRVNEWKTPGKKTIVKCAVNQRQVVIALTGGELVYFEMDPSGQLNEYTERKEMSADVVCMSLANVPPGEQRSRFLAVGLVDNTVRIISLDPSDCLQPLSMQALPAQPESLCIVEMGGTEKQDELGERGSIGFLYLNIGLQNGVLLRTVLDPVTGDLSDTRTRYLGSRPVKLFRVRMQGQEAVLAMSSRSWLSYSYQSRFHLTPLSYETLEFASGFASEQCPEGIVAISTNTLRILALEKLGAVFNQVAFPLQYTPRKFVIHPESNNLIIIETDHNAYTEATKAQRKQQMAEEMVEAAGEDERELAAEMAAAFLNENLPESIFGAPKAGNGQWASVIRVMNPIQGNTLDLVQLEQNEAAFSVAVCRFSNTGEDWYVLVGVAKDLILSPRSVAGGFVYTYKLVNNGEKLEFLHKTPVEEVPAAIAPFQGRVLIGVGKLLRVYDLGKKKLLRKCENKHIANYISGIQTIGHRVIVSDVQESFIWVRYKRNENQLIIFADDTYPRWVTTASLLDYDTVAGADKFGNICVVRLPPNTNDEVDEDPTGNKALWDRGLLNGASQKAEVIMNYHVGETVLSLQKTTLIPGGSESLVYTTLSGGIGILVPFTSHEDHDFFQHVEMHLRSEHPPLCGRDHLSFRSYYFPVKNVIDGDLCEQFNSMEPNKQKNVSEELDRTPPEVSKKLEDIRTRYAF
